Test results as given in PubChem BioAssay AID504444 (National Center for Advancing Translational Sciences (NCATS), 2011).
Hit rate of the full screen: of about 360,000 compounds, about 7,500 (2.1%) were called active. The shares of active, inactive and inconclusive entries below differ from those in the screen. Calls follow the shape of the dose curve; as a rule, active = well fitted inhibition curve with a large enough effect; inconclusive = small, poorly fitted or top-dose-only effect, or effect the other way; inactive = flat fitted curve, though single readings scatter. Potencies beside an inconclusive call are fits to weak or partial responses and may not hold up.

Assay: Nrf2 qHTS screen for inhibitors; also: nearly all actives have a fitted effect of over 60% in size
Conditions: A549 ARE-Fluc reporter, luciferase luminescence, 18-24 h; activity change, negative = inhibition: at 46 µM (top of the series)
Outline: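 Reporter: ARE-Fluc in A549. Exposure: 18-24 h, 37 °C, 5% CO2, 5% FBS OPTI-MEM. Readouts: fluorescent cytotoxicity (CellTiter-Fluor), then luminescent Nrf2 signal after BugLite.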
% is scaled to controls: 0 for no effect and ±100 for the full control effect; potency is read from the fitted curve at half-maximal effect.

| Compound | activity change, negative = inhibition | Potency |
| --- | --- | --- |
| CC(C)CCNC(=O)CN1C(=O)c2cccnc2Oc2ccccc21 | inactive: 3.51% | – |
| N#Cc1ccccc1S(=O)(=O)N1CCCC(c2nc3c(nnn3Cc3cccc(Cl)c3)c(=O)[nH]2)C1 (stereo unspecified) | inactive: 1.2% | – |
| CC(=O)OC(=C(OC(C)=O)c1ccccc1)c1ccccc1 | inactive: 4.12% | – |
| CN(C)S(=O)(=O)c1cccc(NC(=O)COC(=O)C2(c3ccccc3F)CCCC2)c1 | – | inconclusive: 29.1 µM [falling, single point] |
| COc1cc(CNC2CCCC2)cc(Cl)c1OCc1ccccc1Cl | – | inconclusive: 29.1 µM [falling, single point] |
| CCOC(=O)N1CCC(N2C(=O)c3ccccc3C2Nc2ccc3c(C)cc(=O)oc3c2)CC1 (stereo unspecified) | – | inconclusive: 4.11 µM [falling, partial curve, poor fit] |
| CCN1c2ccccc2N(C)C1(C)c1ccccc1 (stereo unspecified) | – | inconclusive: 29.1 µM [falling, single point] |
| COc1ccc(OC)c(CCNC(=O)CCn2ccc3cc(S(=O)(=O)N4CCCC4)ccc32)c1 | – | inconclusive: 32.6 µM [falling, single point] |
| Cc1nn(-c2ccccc2)c2c1N(CCCC(=O)NCc1ccc(Cl)cc1)C(=O)CS2 | – | inconclusive: 18.4 µM [falling, partial curve, poor fit] |
| CCCCNc1nc2c(S(=O)(=O)c3ccc(Cl)cc3)nnn2c2ccsc12 | inactive: -9.55% | – |
| COc1cccc(CNC(=O)c2ccc3c(c2)N(Cc2ccc(C(F)(F)F)cc2)C(=O)c2ccccc2S3)c1OC | inactive: -2.78% | – |
| CN1CCN(C(=O)c2cnn(-c3cccc(Cl)c3)c2C2CCN(C(=O)OC(C)(C)C)CC2)CC1 | – | inconclusive: 29.1 µM [activator, single point] |
| Cc1oc(-c2ccccc2F)nc1CSCC(=O)NC1CCC(C)CC1 (stereo unspecified) | – | inconclusive: 20.6 µM [falling, single point] |
| COC(=O)CNC(c1ccccc1Cl)c1cc(Br)ccc1NS(=O)(=O)c1ccc(C)cc1 (stereo unspecified) | – | inconclusive: 18.4 µM [falling, single point] |
| COc1ccc(/C=N/NC(=O)NC23CC4CC(CC(C4)C2)C3)c(OC)c1 | – | inconclusive: 29.1 µM [falling, single point] |
| COC(=O)c1c(-n2cnnn2)sc(C)c1C | inactive: -21.1% | – |
| CNC(=O)CSc1nc2cc(S(=O)(=O)Nc3ccccc3OC)ccc2o1 | inactive: -7.04% | – |
| CC1=C(C(=O)OCc2ccccc2)C(c2cccc(Br)c2)NC(=O)N1 (stereo unspecified) | inactive: -18.5% | – |
| CCOc1ccc(-c2nnc3ccc(SCC(=O)Nc4nc5ccccc5s4)nn23)cc1 | inactive: 1.58% | – |
| C(=N/Nc1nccs1)/c1cccnc1 | – | inconclusive: 7.31 µM [activator, partial curve] |
| COc1cccc(-n2c(SCC(=O)Nc3sc4c(c3C(N)=O)CCC4)nc3ccccc3c2=O)c1 | – | inconclusive: 4.11 µM [falling, full curve, poor fit] |
| O=C1CCCN1c1ccc(S(=O)(=O)NCCc2ccc(Cl)cc2)cc1 | inactive: -17% | – |

Some of the entries above in another layout.
Compound	activity change, negative = inhibition	Potency
CC(=O)OC(=C(OC(C)=O)c1ccccc1)c1ccccc1	inactive: 4.12%	–
CCN1c2ccccc2N(C)C1(C)c1ccccc1 (stereo unspecified)	–	inconclusive: 29.1 µM [falling, single point]
COC(=O)c1c(-n2cnnn2)sc(C)c1C	inactive: -21.1%	–
C(=N/Nc1nccs1)/c1cccnc1	–	inconclusive: 7.31 µM [activator, partial curve]

More entries follow:

| Compound | activity change, negative = inhibition | Potency |
| --- | --- | --- |
| COc1cc(NC(=O)c2cc(-c3ccccc3)nc3c2cnn3C(C)C)cc(OC)c1OC | – | inconclusive: 32.6 µM [falling, single point] |
| CC(=O)c1cccc(NS(=O)(=O)c2ccc(C(=O)Nc3ccccc3)cc2)c1 | – | active: 7.31 µM |
| Cc1ccccc1C(=O)N1CCc2c([nH]c3ccccc23)C1C(F)(F)F (stereo unspecified) | – | inconclusive: 29.1 µM [falling, single point] |
| C[C@@]12C(=O)Nc3ccc(Cl)cc3C(=O)N1[C@H]1c3cc(Br)ccc3OC[C@@H]1[C@@H]2c1ccccc1 | – | inconclusive: 29.1 µM [activator, single point] |
| CCOc1ccc(-n2c(SCc3nc(-c4cccs4)no3)nnc2-c2ccncc2)cc1 | – | inconclusive: 29.1 µM [falling, single point] |
| COc1ccc(NC(=O)CN(C)C(=O)C2(c3ccccc3)CCCC2)cc1 | – | active: 8.2 µM |
| COc1ccc(S(=O)(=O)N2CCC(c3nnc(-c4ccccc4C)o3)CC2)c(OC)c1 | – | inconclusive: 29.1 µM [falling, single point] |
| Cc1noc2ncnc(N3CCCC(C(=O)NCCC(C)C)C3)c12 (stereo unspecified) | – | active: 23.1 µM |
| CC(C)(C)n1cnc2cc(NC(=O)c3ccccc3)ccc21 | – | inconclusive: 2.91 µM [activator, partial curve] |
| COc1cc(OC)cc(C(=O)NNC(=S)Nc2ccccc2OC)c1 | – | inconclusive: 29.1 µM [activator, single point] |
| Cc1cccc(NC(=S)NNC(=O)c2csc(C(C)C)c2)c1 | – | inconclusive: 3.66 µM [activator, single point] |
| O=C(O)CCNc1cc(N2CCN(C(=O)c3ccco3)CC2)c2noc3c2c1C(=O)c1ccccc1-3 | – | inconclusive: 20.6 µM [falling, single point] |
| Cc1ccc(NS(=O)(=O)c2ccc(-c3cnc(C4CC4)o3)cc2)cc1 | – | inconclusive: 29.1 µM [falling, single point] |
| O=S(=O)(c1ccc2ncsc2c1)N1CCN(c2nc(-c3cccs3)nc3ccccc23)CC1 | – | inconclusive: 2.06 µM [falling, full curve, poor fit] |
| C/C=C/c1ccc(OCC(=O)Nc2cc(S(=O)(=O)N3CCOCC3)ccc2N2CCCC2)c(OC)c1 | – | inconclusive: 32.6 µM [falling, partial curve, poor fit] |
| CC1(NC(=O)c2cccc(S(=O)(=O)N3CCCc4ccccc43)c2)CCS(=O)(=O)C1 (stereo unspecified) | – | inconclusive: 20.6 µM [falling, partial curve, poor fit] |
| O=C(N/N=C\c1cccnc1)c1cc(-c2ccccc2)nc2c(Cl)cccc12 | – | inconclusive: 23.1 µM [falling, single point] |
| COc1cccc(C2CN(c3ccc(F)cc3F)N=C2c2cccs2)c1OC (stereo unspecified) | inactive: -13.2% | – |
| COc1ccc(NS(=O)(=O)c2ccc(C(=O)N3CCCCCC3)cc2)cc1 | – | inconclusive: 18.4 µM [falling, single point] |
| O=C(CSc1nc2ccc(Cl)cc2[nH]1)NCCc1ccc(Cl)cc1 | – | inconclusive: 3.26 µM [activator, partial curve, poor fit] |
| Cn1c(SCC(=O)Nc2ccc(NC(=O)c3ccccc3F)cc2)nnc1-c1ccncc1 | – | inconclusive: 4.11 µM [activator, full curve, poor fit] |
| CC(C)CNc1ncnc2c1cnn2Cc1ccccc1Cl | inactive: -3.49% | – |

| Compound | activity change, negative = inhibition | Potency |
| --- | --- | --- |
| COc1ccc(OC)c(NC(=O)Cn2ccn(-c3ccc(F)cc3)c(=O)c2=O)c1 | – | inconclusive: 6.51 µM [falling, partial curve, poor fit] |
| CCN(C(=O)c1cc2c(=O)[nH]c3ccc(C)cc3c2s1)c1ccc(F)cc1 | inactive: -21.7% | – |
| COc1ccc(-c2nc(SCC(=O)NCC3CCCO3)c(-c3ccc(Cl)cc3)[nH]2)cc1 (stereo unspecified) | – | inconclusive: 0.082 µM [falling, partial curve, poor fit] |
| COc1ccc(-c2[nH]n(-c3ccc([N+](=O)[O-])cc3)c(=O)c2C=NCC2CCCO2)cc1 (stereo unspecified) | – | inconclusive: 14.6 µM [falling, partial curve, poor fit] |
| O=C(Nc1ccc(Cl)cn1)c1ccc2c(Cl)c3c(nc2c1)CCC3 | – | inconclusive: 0.731 µM [activator, full curve] |
| Cc1nn(Cc2ccccc2)c(C)c1NC(=O)c1cc2nc(-c3ccco3)cc(C(F)(F)F)n2n1 | – | inconclusive: 16.4 µM [falling, single point] |
| O=[N+]([O-])c1cc(S(=O)(=O)C(F)(F)F)ccc1Sc1nc2ccccc2[nH]1 | inactive: 3.55% | – |
| Cc1nc(NC(=O)CSc2ccccc2N)sc1C | inactive: 1.24% | – |
| CCCCCOc1ccc(C2C(C(=O)c3ccc(C)o3)=C(O)C(=O)N2c2cc(C)on2)cc1 (stereo unspecified) | – | inconclusive: 29.1 µM [falling, single point] |
| CCOC(=O)C1CCCN(C(=O)c2cc(-c3ccc(C)cc3)on2)C1 (stereo unspecified) | – | inconclusive: 6.51 µM [activator, single point] |
| Nc1cc(S(=O)(=O)N2CCCCC2)ccc1N1CCCCC1 | – | inconclusive: 10.3 µM [falling, single point] |
| CCN1CCN(C(=O)Cn2ncc3c4ccccc4n(Cc4ccccc4F)c3c2=O)CC1 | inactive: 21.8% | – |
| COc1cc(NC(=O)Cn2ccsc2=N)c(C)cc1[N+](=O)[O-] | – | inconclusive: 29.1 µM [falling, single point] |
| COc1ccc(N2CCc3c(C)nc(SC)nc32)cc1 | – | inconclusive: 20.6 µM [falling, partial curve, poor fit] |
| COC(=O)c1c(C)[nH]c(O)c1C=Nc1ccc(C#N)cc1 | – | inconclusive: 14.6 µM [falling, partial curve, poor fit] |
| CC1CCc2c(sc(NC(=O)C3CCCO3)c2C#N)C1 (stereo unspecified) | – | inconclusive: 23.1 µM [activator, partial curve, poor fit] |
| CSc1ncccc1C(=O)Nc1cc(Cl)ccc1N1CCOCC1 | inactive: 1.24% | – |
| COCCNc1oc(-c2ccc(C)cc2)nc1C#N | – | inconclusive: 0.58 µM [activator, full curve] |
| O=c1[nH]c(SCc2ccccc2)ncc1S(=O)(=O)c1ccccc1 | inactive: 4.4% | – |
| CCCc1ccc2oc(C(=O)N(C)Cc3ccn[nH]3)c(C)c2c1 | – | inconclusive: 5.17 µM [activator, partial curve] |
| CCOc1cc(-c2noc(N)c2C(=O)OC)cc(OCC)c1OCC | – | inconclusive: 36.6 µM [falling, partial curve, poor fit] |
| Cc1nc(N)c(Cc2ccc(Cl)cc2Cl)c(N)n1 | – | inconclusive: 16.4 µM [falling, partial curve] |
